Data on 1 substance can be found in doi:10.1101/2023.05.22.23289895.

Chains of the proteins cited; added tags and fusions are not shown.
UniProt Q12824: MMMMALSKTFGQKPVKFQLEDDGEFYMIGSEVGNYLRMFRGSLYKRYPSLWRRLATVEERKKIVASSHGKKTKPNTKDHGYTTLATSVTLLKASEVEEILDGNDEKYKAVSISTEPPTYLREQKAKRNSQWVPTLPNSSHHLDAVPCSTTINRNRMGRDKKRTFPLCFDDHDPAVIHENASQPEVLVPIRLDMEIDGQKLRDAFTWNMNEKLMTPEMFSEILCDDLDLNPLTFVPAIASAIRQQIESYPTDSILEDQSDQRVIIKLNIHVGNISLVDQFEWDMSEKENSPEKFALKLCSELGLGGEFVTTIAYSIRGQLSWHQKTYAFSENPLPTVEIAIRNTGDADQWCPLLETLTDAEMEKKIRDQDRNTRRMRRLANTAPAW

No constants are given. Whether binding was seen depends on the method and setting. In cells and extracts the contact can be indirect. Some entries that bind do so weakly or less than the wild type. For some assays here: Tags and fused reporters may be left off the sequences shown.

For one experiment, the target named is 3xHA-tagged SMARCB1 (UniProt Q12824). As to the kind of experiment: co-IP.
A further experiment addresses T1, 3xHA-tagged CPSF2 (UniProt Q9P2I0).
T1 sequence: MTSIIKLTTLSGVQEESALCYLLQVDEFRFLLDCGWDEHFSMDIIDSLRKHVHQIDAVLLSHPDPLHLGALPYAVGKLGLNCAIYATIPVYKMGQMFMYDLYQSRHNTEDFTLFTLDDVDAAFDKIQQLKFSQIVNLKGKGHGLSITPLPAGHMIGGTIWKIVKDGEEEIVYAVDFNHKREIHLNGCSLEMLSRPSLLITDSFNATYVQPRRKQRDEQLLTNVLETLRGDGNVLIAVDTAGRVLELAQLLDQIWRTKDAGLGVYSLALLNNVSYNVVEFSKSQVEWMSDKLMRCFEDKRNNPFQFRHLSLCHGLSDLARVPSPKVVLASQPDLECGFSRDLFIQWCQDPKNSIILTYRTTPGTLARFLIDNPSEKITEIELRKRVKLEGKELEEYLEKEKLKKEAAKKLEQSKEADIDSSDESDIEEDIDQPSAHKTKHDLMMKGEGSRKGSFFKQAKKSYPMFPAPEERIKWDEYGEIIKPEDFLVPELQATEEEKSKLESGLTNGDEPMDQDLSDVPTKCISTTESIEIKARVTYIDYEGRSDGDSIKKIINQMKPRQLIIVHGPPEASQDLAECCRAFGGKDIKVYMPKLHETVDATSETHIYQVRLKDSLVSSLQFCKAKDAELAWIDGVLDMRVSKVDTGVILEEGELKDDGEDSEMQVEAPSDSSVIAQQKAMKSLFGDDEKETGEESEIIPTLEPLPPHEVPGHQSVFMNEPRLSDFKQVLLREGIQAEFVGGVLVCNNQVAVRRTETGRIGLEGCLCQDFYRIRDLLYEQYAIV
The experiment in a line: co-IP.

Regarding “FLAG-tagged ZFHX3 (from UniProt Q15911-1 1-3703)”, the binding entry in the experiment with 3xHA-tagged SMARCB1 and in the experiment with 3xHA-tagged CPSF2 was “binds” each time.
